Results published in paper doi:10.1101/2024.11.05.621850.
Results are given in words; binding and its absence hold for the method and conditions named. Binding seen in cells or lysates may run through a third protein. Binding can be weak; no strength is given. Sequences can lack the tags named with a protein.

Sequences of proteins named here, by UniProt entry; tags and fusion partners are left off. A change or cut given only in a name is not applied to a line headed by its entry.
UniProt P57735: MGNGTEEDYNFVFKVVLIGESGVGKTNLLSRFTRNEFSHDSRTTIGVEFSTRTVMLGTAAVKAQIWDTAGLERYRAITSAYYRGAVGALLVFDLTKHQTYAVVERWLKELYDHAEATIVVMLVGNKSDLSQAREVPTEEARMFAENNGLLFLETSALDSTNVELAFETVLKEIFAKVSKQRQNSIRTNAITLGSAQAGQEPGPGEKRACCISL

Molecular target: T1, EGFP:DENND6A (human (cDNA of HeLa, HCT116 and MCF7 cells)) (UniProt Q8IWF6)
T1 sequence: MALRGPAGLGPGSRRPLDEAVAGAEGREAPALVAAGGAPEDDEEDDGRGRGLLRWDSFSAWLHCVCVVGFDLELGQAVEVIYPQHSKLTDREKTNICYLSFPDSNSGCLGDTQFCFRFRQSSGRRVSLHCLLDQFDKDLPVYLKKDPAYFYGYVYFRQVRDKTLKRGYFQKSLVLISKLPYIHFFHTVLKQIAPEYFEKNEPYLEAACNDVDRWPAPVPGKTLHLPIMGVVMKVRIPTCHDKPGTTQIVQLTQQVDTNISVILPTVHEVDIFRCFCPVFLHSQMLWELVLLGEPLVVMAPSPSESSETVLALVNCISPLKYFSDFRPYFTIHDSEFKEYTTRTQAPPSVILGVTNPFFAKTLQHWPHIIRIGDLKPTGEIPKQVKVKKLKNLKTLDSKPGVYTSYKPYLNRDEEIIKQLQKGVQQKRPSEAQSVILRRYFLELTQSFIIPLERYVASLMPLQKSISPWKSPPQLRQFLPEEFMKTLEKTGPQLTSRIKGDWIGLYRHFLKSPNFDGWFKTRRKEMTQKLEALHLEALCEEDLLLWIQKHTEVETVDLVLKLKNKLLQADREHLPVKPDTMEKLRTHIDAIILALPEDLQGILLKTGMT
Experiment: co-IP

Row | binding | Substance
1 | binds | HA:RAB25 Q71L (from UniProt P57735)
2 | no binding | HA:RAB25-T26NQ71L (from UniProt P57735)
